Measurements published in patent publication US20120100073A1, “PET RADIOTRACERS FOR IMAGING FATTY ACID METABOLISM AND STORAGE” (WASHINGTON UNIVERSITY, priority 2009, published 2012).

Experiment: microPET imaging and myocardial time-activity curves (tracer kinetics) in a fed rat
Type: in vivo
Conditions: data acquired 20-30 mins after tracer injection
Experimental: Animal Preparation. All animal procedures are conducted in compliance with the guidelines for the care and use of research animals established by the Animal Studies Committee of Washington University. Animal preparation is performed as described previously.^24-26 Rats are housed in metabolism cages and anesthetized by inhalation of […] isoflurane administered via an induction chamber. Anesthesia can be maintained throughout the imaging session by delivering 1%-1.5% isoflurane via a custom-designed nose cone. Venous access is via the right jugular vein. Body temperature can be maintained using a circulating water blanket and a heat lamp. Heart and respiration rates can be monitored throughout the process.
PET Acquisition. The animals can be secured in a custom-designed acrylic restraining device and placed inside the field of view of the small-animal imaging PET scanner. Imaging acquisition starts Ss after a bolus injection of tracer via the right jugular catheter. The imaging protocol consists of dynamic acquisition of microPET images of ^11C-palmitate (5-7mCI) followed by ^18F-FAA or by ^18F-VLDL (5-7mCi) alone. Dynamic mage acquisition during ^11C-palmitate and either ^18F-FAA or ^18F-FAA-VLDL can be 30 and 60 min, respectively. The total time of the imaging session can be ˜3 hrs. […]

## O=C(O)CCCCCCCCCCCCCCc1ccc(OCC[18F])cc1 [^18F-FAA]
  image quality of myocardial microPET images: excellent quality
  tracer activity in images compared with ^11C-palmitate images: higher tracer activity than ^11C-palmitate images
